PubChem BioAssay AID504808 – Drosophila RNAi Screening Center, 2011
The deposit covers about 21,000 reagents; shown is an unselected part of those with a known target gene and a result. Over the whole deposit, 18 (0.084%) got an active call. 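Raw counts without plate normalisation, one of two replicates; the ratio scores behind the calls were not deposited.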 A plus sign joins genes that one reagent is predicted to hit. The record does not give: the amount of reagent, the time to read-out.

- Screen: 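Fly genes required to hold E2F transcription in check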 (primary screen)
- Cell system: Drosophila S2 cells
- Reagents: long dsRNA against Drosophila genes
- Read-out: 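Dual luciferase plate measurements; E2F-specific signal taken as firefly over Renilla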
- Scale: E2F firefly: higher = more E2F reporter activity; Renilla normaliser: higher = more normaliser reporter signal
- Call rule: 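Called active if the normalised E2F reporter went up by over 50%; the cutoff is arbitrary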

gene knocked down | dsRNA | E2F firefly, rep 1 | Renilla normaliser, rep 1 | Call
TyrR (Tyramine receptor) | DRSC16242 | 1.25e5 | 8410 | inactive
CG42812 + CG42811 | DRSC15367 | 1.00e5 | 5184 | inactive
CG42812 + CG42811 | DRSC15368 | 99866 | 5906 | inactive
CAH6 (Carbonic anhydrase 6) | DRSC15505 | 1.17e5 | 5384 | inactive
lmd (lame duck) | DRSC15618 | 70524 | 3496 | inactive
CG1986 | DRSC18197 | 1.25e5 | 7092 | inactive
f-cup (flyers-cup) | DRSC14139 | 87353 | 3761 | inactive
CG32591 | DRSC19063 | 95803 | 2935 | inactive
GCS1 (Glucosidase 1) | DRSC19744 | 7623 | 728 | inactive
CG33285 | DRSC11463 | 93277 | 4187 | inactive
CG5608 | DRSC15841 | 80412 | 3192 | inactive
CAH5 (Carbonic anhydrase 5) | DRSC15372 | 1.20e5 | 6260 | inactive
Psf1 (Partner of Sld Five 1) | DRSC08638 | 78655 | 2881 | inactive
REPTOR-BP (REPTOR-binding partner) | DRSC02683 | 1.69e5 | 6063 | inactive
CG10514 | DRSC14249 | 1.03e5 | 5341 | inactive
TTLL4A (Tubulin tyrosine ligase-like 4A) | DRSC02528 | 92972 | 3367 | inactive
CG5024 | DRSC15698 | 1.02e5 | 5473 | inactive
Syb (Synaptobrevin) | DRSC07559 | 2766 | 190 | inactive
RfC4 (Replication factor C subunit 4) | DRSC08691 | 65650 | 3463 | inactive
CG42784 | DRSC02534 | 77655 | 4006 | inactive
CG42784 | DRSC02535 | 80421 | 104 | inactive
Cyp313b1 (Cytochrome P450 313b1) | DRSC16629 | 1.30e5 | 6767 | inactive
wb (wing blister) | DRSC01375 | 81860 | 2567 | inactive
wb (wing blister) | DRSC03634 | 1.04e5 | 4414 | inactive
CG5592 | DRSC10524 | 92685 | 3504 | inactive
Galphai (G protein alpha subunit i) | DRSC11168 | 62865 | 3304 | inactive
su(sable) (suppressor of sable) | DRSC18839 | 1.14e5 | 5564 | inactive
CG4375 | DRSC00653 | 1.68e5 | 6054 | inactive
dj (don juan) | DRSC12625 | 1.27e5 | 5920 | inactive
Nep4 (Neprilysin 4) | DRSC15539 | 62526 | 3235 | inactive
CG14312 | DRSC14791 | 1.37e5 | 6833 | inactive
Gk2 (Glycerol kinase 2) | DRSC08610 | 78796 | 3728 | inactive
Dred (Dctn1-related) | DRSC11057 | 1.29e5 | 5654 | inactive
Dred (Dctn1-related) | DRSC11059 | 56225 | 3452 | inactive
CG12016 + Dpm2 | DRSC08224 | 75263 | 3543 | inactive
CG4733 | DRSC15634 | 1.43e5 | 7172 | inactive
CG31954 | DRSC00580 | 90378 | 3285 | inactive
CG5290 | DRSC10501 | 61954 | 3265 | inactive
Amyrel (Amylase related) | DRSC05920 | 75893 | 3570 | inactive
Pof (Painting of fourth) | DRSC04405 | 94679 | 3736 | inactive
CG14515 | DRSC14867 | 1.17e5 | 6342 | inactive
CG34176 | DRSC00435 | 1.33e5 | 5195 | inactive
djl (don juan like) | DRSC12578 | 1.22e5 | 6972 | inactive
Polr2K (RNA polymerase II, I and III subunit K) | DRSC05535 | 97482 | 4407 | inactive
CG32767 | DRSC18386 | 49854 | 3358 | inactive
CG9776 | DRSC12127 | 80561 | 3746 | inactive
pygo (pygopus) | DRSC14322 | 1335 | 996 | inactive
Fis1 (Fission, mitochondrial 1) | DRSC07772 | 93363 | 4256 | inactive
Ir68b (Ionotropic receptor 68b) | DRSC10251 | 1.36e5 | 7716 | inactive
CG13810 | DRSC08344 | 1.03e5 | 4107 | inactive
Miox (Myo-inositol oxygenase) | DRSC10747 | 1.26e5 | 7714 | inactive
CG13082 | DRSC02186 | 89721 | 4034 | inactive
AdipoR (Adiponectin receptor) | DRSC15767 | 60512 | 3642 | inactive
Fadd (Fas-associated death domain) | DRSC14122 | 1.37e5 | 7990 | inactive
CG31495 | DRSC16762 | 1.16e5 | 6246 | inactive
Zmynd10 (Zinc finger MYND-type containing 10) | DRSC09826 | 1.34e5 | 6297 | inactive
TwdlD (TweedleD) | DRSC14738 | 1.16e5 | 5658 | inactive
CG13733 | DRSC10061 | 1.77e5 | 7968 | inactive
CG4880 | DRSC19923 | 1.48e5 | 5494 | inactive
Chro (Chromator) | DRSC11630 | 88855 | 2942 | inactive
Kdm3 (Lysine demethylase 3) | DRSC16393 | 1.86e5 | 6574 | inactive
r2d2 | DRSC03014 | 1.32e5 | 4936 | inactive
CG7800 | DRSC16315 | 1.29e5 | 5977 | inactive
COX5B (Cytochrome c oxidase subunit 5B) | DRSC02115 | 1.43e5 | 5071 | inactive
Peritrophin-15a | DRSC02636 | 1.43e5 | 4471 | inactive
MFS10 (Major Facilitator Superfamily Transporter 10) | DRSC19888 | 8049 | 716 | inactive
Pex19 (Peroxin 19) | DRSC02839 | 84107 | 3555 | inactive
CG11842 | DRSC14400 | 1956 | 972 | inactive
Gpdh1 (Glycerol-3-phosphate dehydrogenase 1) | DRSC03336 | 82977 | 3937 | inactive
CG3735 | DRSC04411 | 87128 | 3690 | inactive
CG8560 | DRSC10994 | 65617 | 3149 | inactive
GMF (Glia maturation factor) | DRSC01928 | 76210 | 2812 | inactive
CG8072 | DRSC10960 | 78332 | 4235 | inactive
Tango11 (Transport and Golgi organization 11) | DRSC03890 | 1.30e5 | 5064 | inactive
Tango11 (Transport and Golgi organization 11) | DRSC03892 | 1.39e5 | 4947 | inactive
lectin-46Ca | DRSC06612 | 71639 | 4298 | inactive
CG2961 | DRSC18246 | 1.23e5 | 5319 | inactive
CG5885 | DRSC02910 | 77598 | 3543 | inactive
CG17568 | DRSC02628 | 86405 | 4298 | inactive
dany (distal antenna-young) | DRSC04141 | 1.02e5 | 4025 | inactive
CG33111 | DRSC14208 | 1.10e5 | 5500 | inactive
CG33111 | DRSC14444 | 1.12e5 | 6118 | inactive
CG12923 | DRSC06237 | 1.55e5 | 4896 | inactive
Osi24 (Osiris 24) | DRSC12275 | 1.33e5 | 6275 | inactive
CG34428 | DRSC10119 | 1.26e5 | 6869 | inactive
CG3713 | DRSC18648 | 53555 | 3456 | inactive
Sodq (Sodesque) | DRSC15924 | 1.07e5 | 5952 | inactive
Gr64b (Gustatory receptor 64b) | DRSC08444 | 94936 | 4218 | inactive
CG30479 | DRSC06735 | 99747 | 4296 | inactive
CG15599 | DRSC19668 | 1.85e5 | 5499 | inactive
CG15393 (retired record) | DRSC00407 | 1.62e5 | 5668 | inactive
CkIIbeta2 (Casein kinase II beta2 subunit) | DRSC07361 | 1.54e5 | 5354 | inactive
CG42795 | DRSC12772 | 86525 | 4448 | inactive
CG42795 | DRSC15533 | 1.28e5 | 7935 | inactive
Uch-L5 (Ubiquitin carboxy-terminal hydrolase L5) | DRSC11314 | 82862 | 3517 | inactive
repo (reversed polarity) | DRSC16369 | 1.44e5 | 6310 | inactive
CG15611 | DRSC06563 | 77696 | 4159 | inactive
CG15611 | DRSC06564 | 1.50e5 | 5113 | inactive
CG13793 | DRSC02297 | 1.49e5 | 5029 | inactive
CG10581 | DRSC11623 | 1.46e5 | 6477 | inactive
v (vermilion) | DRSC20383 | 7919 | 760 | inactive
His-Psi:CR31616 + His-Psi:CR31615 | DRSC03760 | 73812 | 4575 | inactive
GABA-B-R2 (metabotropic GABA-B receptor subtype 2) | DRSC14134 | 82694 | 3597 | inactive
CG14882 | DRSC15006 | 71023 | 3416 | inactive
Ctl2 (Choline transporter-like 2) | DRSC14423 | 1861 | 1104 | inactive
CG32452 | DRSC11581 | 96367 | 4001 | inactive
Gar1 (Gar1 ribonucleoprotein) | DRSC04441 | 90538 | 4010 | inactive
